From the supplement of paper PMC10849652
The other results are listed elsewhere or left out. Residues, ends and D or L forms follow the SMILES beside them. *: point of attachment. Cbz = O=C(OCc1ccccc1)*

Chains of the proteins cited; added tags and fusions are not shown. Lines headed by an entry give the natural chain unless they say otherwise; changes in a name come on top.
UniProt Q7Z7A3: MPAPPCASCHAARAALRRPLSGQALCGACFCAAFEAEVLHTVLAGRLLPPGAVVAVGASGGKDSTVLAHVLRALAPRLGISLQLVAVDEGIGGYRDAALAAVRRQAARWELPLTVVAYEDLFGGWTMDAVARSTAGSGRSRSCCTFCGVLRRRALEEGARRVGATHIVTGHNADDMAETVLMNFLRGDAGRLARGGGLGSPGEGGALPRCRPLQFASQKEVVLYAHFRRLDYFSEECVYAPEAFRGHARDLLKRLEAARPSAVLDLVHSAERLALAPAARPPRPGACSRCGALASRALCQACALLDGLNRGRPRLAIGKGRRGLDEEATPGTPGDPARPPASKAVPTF
UniProt P39880: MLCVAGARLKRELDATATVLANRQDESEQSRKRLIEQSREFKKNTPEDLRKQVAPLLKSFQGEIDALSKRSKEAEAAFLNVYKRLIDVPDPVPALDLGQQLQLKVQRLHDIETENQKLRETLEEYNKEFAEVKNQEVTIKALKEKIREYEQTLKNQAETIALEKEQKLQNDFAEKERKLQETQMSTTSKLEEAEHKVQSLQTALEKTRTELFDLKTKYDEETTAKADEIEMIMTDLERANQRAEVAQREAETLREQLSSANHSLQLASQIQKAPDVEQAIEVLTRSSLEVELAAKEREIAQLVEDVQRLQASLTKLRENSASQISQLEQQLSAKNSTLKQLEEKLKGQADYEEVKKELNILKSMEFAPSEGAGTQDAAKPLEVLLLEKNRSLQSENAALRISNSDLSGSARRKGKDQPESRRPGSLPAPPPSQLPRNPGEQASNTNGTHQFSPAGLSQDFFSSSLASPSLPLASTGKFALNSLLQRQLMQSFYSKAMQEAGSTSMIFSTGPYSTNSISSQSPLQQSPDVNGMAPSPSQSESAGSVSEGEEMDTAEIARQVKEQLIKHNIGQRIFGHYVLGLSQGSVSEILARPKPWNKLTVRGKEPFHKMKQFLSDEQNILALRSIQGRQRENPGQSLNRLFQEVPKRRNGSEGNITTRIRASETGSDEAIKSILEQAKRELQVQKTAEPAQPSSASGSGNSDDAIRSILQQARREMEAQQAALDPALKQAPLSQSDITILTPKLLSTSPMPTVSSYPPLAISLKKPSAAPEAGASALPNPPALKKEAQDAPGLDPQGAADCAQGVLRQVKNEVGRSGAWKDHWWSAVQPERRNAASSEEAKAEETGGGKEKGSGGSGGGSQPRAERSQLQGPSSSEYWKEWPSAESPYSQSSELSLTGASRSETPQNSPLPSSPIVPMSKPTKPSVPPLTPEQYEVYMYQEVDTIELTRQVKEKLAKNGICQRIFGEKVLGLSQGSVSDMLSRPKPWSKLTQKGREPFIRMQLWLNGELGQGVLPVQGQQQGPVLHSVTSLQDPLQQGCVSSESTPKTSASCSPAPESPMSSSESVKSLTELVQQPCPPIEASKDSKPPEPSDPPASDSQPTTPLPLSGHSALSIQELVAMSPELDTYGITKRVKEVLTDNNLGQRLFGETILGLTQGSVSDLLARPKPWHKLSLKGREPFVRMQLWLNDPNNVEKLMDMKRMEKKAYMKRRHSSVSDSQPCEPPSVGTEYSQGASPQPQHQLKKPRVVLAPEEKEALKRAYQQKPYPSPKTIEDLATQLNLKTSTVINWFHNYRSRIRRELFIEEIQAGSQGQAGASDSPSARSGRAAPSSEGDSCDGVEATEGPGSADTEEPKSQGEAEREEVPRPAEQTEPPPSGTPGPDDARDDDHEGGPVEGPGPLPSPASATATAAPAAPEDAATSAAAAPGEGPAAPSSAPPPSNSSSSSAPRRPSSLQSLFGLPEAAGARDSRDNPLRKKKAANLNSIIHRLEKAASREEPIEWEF
UniProt P32321: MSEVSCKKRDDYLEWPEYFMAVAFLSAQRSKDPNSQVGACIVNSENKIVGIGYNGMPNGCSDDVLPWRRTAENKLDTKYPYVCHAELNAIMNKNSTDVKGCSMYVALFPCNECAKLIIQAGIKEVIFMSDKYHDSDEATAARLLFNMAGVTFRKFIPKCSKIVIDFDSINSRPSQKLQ
UniProt Q12996: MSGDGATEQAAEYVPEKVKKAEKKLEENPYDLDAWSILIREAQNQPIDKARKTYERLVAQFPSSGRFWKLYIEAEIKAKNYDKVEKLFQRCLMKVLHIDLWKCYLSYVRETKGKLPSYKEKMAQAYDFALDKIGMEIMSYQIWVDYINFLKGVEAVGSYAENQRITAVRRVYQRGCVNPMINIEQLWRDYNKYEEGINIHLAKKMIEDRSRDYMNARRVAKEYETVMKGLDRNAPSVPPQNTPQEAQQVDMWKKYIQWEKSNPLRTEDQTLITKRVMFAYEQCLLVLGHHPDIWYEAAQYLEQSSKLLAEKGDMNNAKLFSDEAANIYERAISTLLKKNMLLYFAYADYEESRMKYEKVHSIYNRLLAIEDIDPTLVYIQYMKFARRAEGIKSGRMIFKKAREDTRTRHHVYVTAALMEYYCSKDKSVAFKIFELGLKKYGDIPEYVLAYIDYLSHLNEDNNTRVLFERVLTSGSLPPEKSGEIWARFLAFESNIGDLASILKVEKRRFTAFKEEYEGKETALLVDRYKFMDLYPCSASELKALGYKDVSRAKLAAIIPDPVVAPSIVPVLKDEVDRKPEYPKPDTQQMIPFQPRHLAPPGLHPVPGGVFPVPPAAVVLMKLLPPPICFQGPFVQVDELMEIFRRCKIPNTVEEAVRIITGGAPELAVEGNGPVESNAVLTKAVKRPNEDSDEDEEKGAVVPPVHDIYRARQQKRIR
UniProt Q5JQC4: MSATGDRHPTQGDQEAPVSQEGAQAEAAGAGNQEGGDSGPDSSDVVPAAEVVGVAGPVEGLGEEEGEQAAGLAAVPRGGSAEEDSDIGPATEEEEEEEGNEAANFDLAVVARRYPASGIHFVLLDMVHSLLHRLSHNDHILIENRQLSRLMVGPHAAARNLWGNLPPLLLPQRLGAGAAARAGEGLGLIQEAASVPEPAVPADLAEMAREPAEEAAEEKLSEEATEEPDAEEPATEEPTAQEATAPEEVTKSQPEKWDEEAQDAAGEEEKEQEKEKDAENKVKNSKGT
UniProt P61962: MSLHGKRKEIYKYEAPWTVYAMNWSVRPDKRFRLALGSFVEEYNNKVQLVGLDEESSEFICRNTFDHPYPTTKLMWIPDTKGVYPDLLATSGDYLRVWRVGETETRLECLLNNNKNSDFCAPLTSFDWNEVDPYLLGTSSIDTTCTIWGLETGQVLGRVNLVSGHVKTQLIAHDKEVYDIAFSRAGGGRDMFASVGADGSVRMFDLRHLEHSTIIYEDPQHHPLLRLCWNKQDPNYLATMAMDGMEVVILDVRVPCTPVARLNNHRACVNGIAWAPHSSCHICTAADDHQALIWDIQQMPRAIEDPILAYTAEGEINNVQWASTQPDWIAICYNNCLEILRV
UniProt Q96SQ9: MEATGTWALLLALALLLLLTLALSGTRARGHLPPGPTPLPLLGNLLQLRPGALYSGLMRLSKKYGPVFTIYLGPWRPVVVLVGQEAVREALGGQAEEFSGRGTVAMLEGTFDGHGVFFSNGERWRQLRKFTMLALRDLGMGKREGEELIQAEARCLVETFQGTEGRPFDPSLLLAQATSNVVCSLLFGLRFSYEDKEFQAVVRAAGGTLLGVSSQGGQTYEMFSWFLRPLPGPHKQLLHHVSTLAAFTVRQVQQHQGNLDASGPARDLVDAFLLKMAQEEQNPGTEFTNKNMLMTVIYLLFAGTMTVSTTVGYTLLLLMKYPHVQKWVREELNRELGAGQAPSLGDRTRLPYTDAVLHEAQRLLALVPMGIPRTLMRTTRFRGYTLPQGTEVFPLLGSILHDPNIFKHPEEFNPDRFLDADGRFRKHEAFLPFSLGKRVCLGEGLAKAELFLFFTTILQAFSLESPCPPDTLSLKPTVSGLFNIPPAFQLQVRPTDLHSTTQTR
UniProt Q9H467: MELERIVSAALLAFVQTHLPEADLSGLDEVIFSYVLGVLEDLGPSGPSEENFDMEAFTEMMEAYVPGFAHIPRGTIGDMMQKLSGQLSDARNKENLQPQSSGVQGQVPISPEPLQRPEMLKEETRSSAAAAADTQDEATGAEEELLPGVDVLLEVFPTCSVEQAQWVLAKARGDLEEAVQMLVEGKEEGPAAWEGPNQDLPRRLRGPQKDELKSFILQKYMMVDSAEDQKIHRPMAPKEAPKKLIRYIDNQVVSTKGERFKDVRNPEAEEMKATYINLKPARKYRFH
UniProt Q53TN4: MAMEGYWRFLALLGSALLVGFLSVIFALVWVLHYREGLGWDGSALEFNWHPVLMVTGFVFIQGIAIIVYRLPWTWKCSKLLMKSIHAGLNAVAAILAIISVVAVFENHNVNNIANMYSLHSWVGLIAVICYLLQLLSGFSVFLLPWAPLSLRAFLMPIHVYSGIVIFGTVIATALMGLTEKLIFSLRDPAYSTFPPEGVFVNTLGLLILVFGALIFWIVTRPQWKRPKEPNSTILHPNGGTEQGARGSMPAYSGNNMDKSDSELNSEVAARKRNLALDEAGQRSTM
UniProt P00167, whole entry, looked up: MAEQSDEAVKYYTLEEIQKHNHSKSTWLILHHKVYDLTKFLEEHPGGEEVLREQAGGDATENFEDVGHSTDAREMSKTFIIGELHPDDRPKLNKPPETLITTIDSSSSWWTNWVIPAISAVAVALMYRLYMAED
UniProt Q16643: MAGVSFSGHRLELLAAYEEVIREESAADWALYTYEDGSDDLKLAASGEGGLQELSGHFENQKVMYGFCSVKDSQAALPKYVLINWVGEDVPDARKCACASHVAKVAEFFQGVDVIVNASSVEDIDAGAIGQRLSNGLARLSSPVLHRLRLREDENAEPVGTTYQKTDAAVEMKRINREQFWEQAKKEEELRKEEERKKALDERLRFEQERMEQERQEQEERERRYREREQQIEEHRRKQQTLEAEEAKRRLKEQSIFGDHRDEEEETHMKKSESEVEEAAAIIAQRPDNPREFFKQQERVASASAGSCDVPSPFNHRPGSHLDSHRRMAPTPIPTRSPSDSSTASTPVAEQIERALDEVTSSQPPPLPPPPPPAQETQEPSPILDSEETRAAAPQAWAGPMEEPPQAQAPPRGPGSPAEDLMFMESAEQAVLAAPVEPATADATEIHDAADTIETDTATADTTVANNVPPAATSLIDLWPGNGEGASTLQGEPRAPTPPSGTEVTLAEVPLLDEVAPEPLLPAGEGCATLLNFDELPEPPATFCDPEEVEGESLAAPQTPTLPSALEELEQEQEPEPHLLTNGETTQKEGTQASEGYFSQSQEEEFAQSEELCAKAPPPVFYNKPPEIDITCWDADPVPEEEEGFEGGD
UniProt Q8NA75: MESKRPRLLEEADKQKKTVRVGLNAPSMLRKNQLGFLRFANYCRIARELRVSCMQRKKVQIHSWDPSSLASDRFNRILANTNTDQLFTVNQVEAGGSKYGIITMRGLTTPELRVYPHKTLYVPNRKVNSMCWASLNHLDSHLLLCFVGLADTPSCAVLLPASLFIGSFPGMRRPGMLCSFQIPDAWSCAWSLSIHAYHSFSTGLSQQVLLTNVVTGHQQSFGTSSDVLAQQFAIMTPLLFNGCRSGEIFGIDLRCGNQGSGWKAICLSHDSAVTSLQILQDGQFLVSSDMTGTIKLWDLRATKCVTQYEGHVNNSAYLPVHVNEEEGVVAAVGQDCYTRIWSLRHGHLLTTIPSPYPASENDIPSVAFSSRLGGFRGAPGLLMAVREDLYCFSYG
UniProt O60911: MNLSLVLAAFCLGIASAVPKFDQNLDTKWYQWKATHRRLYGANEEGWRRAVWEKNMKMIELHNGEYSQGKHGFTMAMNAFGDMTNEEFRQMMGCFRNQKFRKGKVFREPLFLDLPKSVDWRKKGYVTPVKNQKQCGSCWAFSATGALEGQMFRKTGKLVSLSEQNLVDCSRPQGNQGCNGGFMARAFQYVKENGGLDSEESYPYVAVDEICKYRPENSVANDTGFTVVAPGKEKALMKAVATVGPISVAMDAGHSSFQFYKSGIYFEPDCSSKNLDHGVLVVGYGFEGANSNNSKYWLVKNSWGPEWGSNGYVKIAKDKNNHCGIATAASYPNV
UniProt P10619: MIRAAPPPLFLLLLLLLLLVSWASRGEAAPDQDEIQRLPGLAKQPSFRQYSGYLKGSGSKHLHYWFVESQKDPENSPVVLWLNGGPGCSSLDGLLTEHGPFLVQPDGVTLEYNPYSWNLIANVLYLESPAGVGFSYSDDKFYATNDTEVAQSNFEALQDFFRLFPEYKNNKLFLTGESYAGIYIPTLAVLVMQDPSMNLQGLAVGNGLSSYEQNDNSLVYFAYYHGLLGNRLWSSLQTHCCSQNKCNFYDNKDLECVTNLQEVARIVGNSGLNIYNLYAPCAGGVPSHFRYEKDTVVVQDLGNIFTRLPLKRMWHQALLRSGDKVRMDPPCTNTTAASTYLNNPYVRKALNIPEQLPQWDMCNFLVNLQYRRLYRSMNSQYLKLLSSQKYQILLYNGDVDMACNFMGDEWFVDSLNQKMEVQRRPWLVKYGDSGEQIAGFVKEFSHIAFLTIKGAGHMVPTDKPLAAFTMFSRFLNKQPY
UniProt P61803: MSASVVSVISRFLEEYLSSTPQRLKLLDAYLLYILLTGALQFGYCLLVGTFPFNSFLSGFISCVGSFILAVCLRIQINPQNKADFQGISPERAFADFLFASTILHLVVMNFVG

Assays:
Experiment in all cases: log2 fold change, soluble protein after heating vs DMSO (PISA); higher = thermal stabilisation; K562 cells, 10 uM, 30 min; active = over 0.2 and 3.5 SD of the protein, either way, in both replicates (recomputed)
[1] = compound: C#Cc1cccc(Nc2ncnc3cc(OCCOC)c(OCCOC)cc23)c1 [erlotinib]
In short: (§1)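 Soluble protein was quantified by TMTpro 16plex LC-MS/MS after channel sums were equalised. It was obtained as the supernatant after 21,000xg for 90 min from pooled aliquots of K562 cells (2×10^6 cells/mL, 10 μM compound, 30 min) heated for 3 min across 48°C-58°C and extracted in PBS with 0.5% NP-40 at 4°C. Thermal stability values are relative to control samples and come from duplicates. They are given as log2 fold changes.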

[2] = compound: C/C(=N\NC(=O)C1=CC(=CC=C1)S(=O)(=O)N2CCOCC2)/C3=C(C=CC(=C3)Cl)O
In short: as §1

[3] = compound: C1=CC(=C(C=C1Cl)C2=NC3=NC=CN=C3C(=N2)NC4=CC=NC=C4)F
In short: as §1

[4] = compound: C1=CC(=CC=C1C2=NC3=C(N2)C=C(C=C3)C(=O)N)OC4=CC=C(C=C4)Cl
In short: as §1

[5] = compound: C1=CC2=C(C=CC(=C2)/C=C\3/C(=O)NC(=NCC4=CC=CS4)S3)N=C1
In short: as §1

[6] = compound: C1=CC2=NC=CN=C2C=C1/C=C/3\C(=O)NC(=O)S3
In short: as §1

[7] = compound: C1=CC=C(C=C1)C2=NC(=C(N2)C3=CC=NC=C3)C4=CC(=C(C=C4)Cl)O
In short: as §1

[8] = compound: C1=CC=C2C(=C1)C3=NNC4=CC=CC(=C43)C2=O
In short: as §1

[9] = compound: C1CCN(C1)C(=O)NC2=CC=CC(=C2)NC3=NC=C(C(=N3)NCCC4=CN=CN4)Br
In short: as §1

[10] = compound: C1CN(CCC1(CC2=CC=C(C=C2)Cl)N)C3=NC=NC4=C3C=CN4
In short: as §1

[11] = compound: C1COCCN1CCN2C3=CC=CC=C3N=C2NC(=O)C4=CC(=CC=C4)[N+](=O)[O-] [IRAK-1-4 Inhibitor I]
In short: as §1

[12] = compound: C=CC(=O)N1CCC[C@@H](n2nc(-c3ccc(Oc4ccccc4)cc3)c3c(N)ncnc32)C1 [ibrutinib]
In short: as §1

[13] = compound: CC(=O)c1cnc2ccc(-c3cc(Cl)c(O)c(Cl)c3)nc2c1N[C@H]1CC[C@H](CN(C)C)CC1
In short: as §1

[14] = compound: CC(C)(C)Cn1c(N)nc2ccc(-c3[nH]c(C(C)(C)C)nc3-c3ccc(F)cc3)nc21 [ralimetinib]
In short: as §1

[15] = compound: CC(C)(O)CC(=O)NCCn1ccc2ncnc(Nc3ccc(Oc4cccc(C(F)(F)F)c4)c(Cl)c3)c21
In short: as §1

[16] = compound: CC(C)C1=C2N=C(C=C(N2N=C1)NCC3=CC=CC=C3)NCCCCCCN
In short: as §1

[17] = compound: CC(C)C[C@@H](C=O)NC(=O)[C@H](CC(C)C)NC(=O)[C@H](CC(C)C)NC(=O)OCc1ccccc1
In short: as §1

[18] = compound: CC(C)N(C[C@H]1O[C@@H](n2cnc3c(N)ncnc32)[C@H](O)[C@@H]1O)[C@H]1C[C@@H](CCc2nc3cc(C(C)(C)C)ccc3[nH]2)C1 [pinometostat]
In short: as §1

[19] = compound: CC1=C(C2=C(C=C1)C(=O)C3=CC=CC=C3N2CCCN)C
In short: as §1

[20] = compound: CC1=C(C(CC(=O)N1)C2=CC=C(C=C2)C(F)(F)F)C(=O)NC3=C(C=C4C(=C3)C=NN4)F
In short: as §1

Measured: log2 fold change

CTU1 (UniProt Q7Z7A3)
inactive: [1] 0.05 | [2] -0.01 | [3] 0.079 | [4] 0.047 | [5] 0.079 | [6] 0.011 | [7] 0.04 | [8] 0.042 | [9] 0.032 | [10] 0.008 | [11] 0.026 | [12] 0.041 | [13] 0.02 | [14] 0.005 | [15] -0.054 | [16] -0.052 | [17] -0.041 | [18] 0.007 | [19] -0.021

CUX1 isoform 3 (UniProt P39880)
inactive: [1] 0.013 | [2] 0 | [3] 0.034 | [4] -0.015 | [5] -0.008 | [6] 0.11 | [7] -0.074 | [8] 0.01 | [9] -0.003 | [10] 0.092 | [11] 0.019 | [12] -0.033 | [13] -0.032 | [14] -0.065 | [15] -0.047 | [16] 0.008 | [17] 0.116 | [18] -0.018 | [19] 0.153

CTBP2 isoform 2 (UniProt P56545)
inactive: [1] 0.019 | [2] -0.015 | [3] 0.047 | [4] -0.016 | [5] 0.098 | [6] 0.003 | [7] -0.048 | [8] -0.006 | [9] -0.009 | [10] -0.018 | [11] -0.02 | [12] 0.002 | [13] -0.072 | [14] -0.091 | [15] 0.014 | [16] 0.035 | [17] -0.006 | [18] -0.055 | [20] 0.024 | [19] 0.044

DCTD isoform 2 (UniProt P32321)
inactive: [1] -0.065 | [2] 0.001 | [3] 0.016 | [4] 0.038 | [5] 0.02 | [6] 0.021 | [7] 0.013 | [8] -0.004 | [9] -0.05 | [10] 0.041 | [11] 0.018 | [12] -0.017 | [13] -0.004 | [14] -0.047 | [15] -0.035 | [16] 0.092 | [17] -0.01 | [18] -0.043 | [20] -0.016 | [19] 0.008

CSTF3 (UniProt Q12996)
inactive: [1] -0.038 | [2] 0.012 | [3] -0.003 | [4] 0.015 | [5] 0.014 | [6] 0.077 | [7] -0.032 | [8] 0.035 | [9] 0.027 | [10] -0.027 | [11] 0.087 | [12] 0 | [13] 0.019 | [14] -0.052 | [15] -0.026 | [16] 0.132 | [17] -0.012 | [18] 0.021
active: [19] 0.262

CT47A1 (UniProt Q5JQC4)
inactive: [1] 0.071 | [2] 0.087 | [3] 0.013 | [4] -0.05 | [5] -0.034 | [6] 0.016 | [7] -0.142 | [8] -0.08 | [9] 0.064 | [10] -0.017 | [11] -0.051 | [12] 0.006 | [13] -0.015 | [14] 0.145 | [15] 0.004 | [16] -0.065 | [17] 0.013 | [18] 0.088 | [20] 0.028 | [19] -0.016

DCAF7 (UniProt P61962)
inactive: [1] 0.013 | [2] -0.046 | [3] -0.058 | [4] 0.035 | [5] -0.028 | [6] -0.063 | [7] -0.071 | [8] -0.029 | [9] -0.005 | [10] -0.018 | [11] 0.044 | [12] 0.015 | [13] -0.075 | [14] -0.046 | [15] -0.012 | [16] -0.029 | [17] 0.099 | [18] 0.017 | [20] 0.035 | [19] 0.02

DAB2 (UniProt P98082)
inactive: [1] 0.107 | [2] 0.112 | [3] 0.01 | [4] -0.035 | [5] 0.037 | [6] 0.008 | [7] 0.002 | [8] 0.019 | [9] -0.156 | [10] -0.006 | [11] -0.009 | [12] 0.004 | [13] -0.093 | [14] 0.082 | [15] -0.119 | [16] -0.02 | [17] 0.138 | [18] 0.049 | [19] -0.075

CYP2S1 isoform 2 (UniProt Q96SQ9)
inactive: [1] 0.008 | [2] -0.025 | [4] 0.032 | [5] 0.359 | [6] -0.056 | [7] 0.096 | [8] -0.09 | [11] -0.044 | [12] -0.302 | [13] -0.032 | [14] -0.132 | [16] 0 | [17] 0.044 | [18] -0.274

CUEDC2 (UniProt Q9H467)
inactive: [1] 0.016 | [2] -0.023 | [3] 0.047 | [4] 0.023 | [5] -0.021 | [6] 0.117 | [7] -0.074 | [8] 0.008 | [9] -0.071 | [10] -0.006 | [11] 0.035 | [12] -0.011 | [13] 0.003 | [14] -0.026 | [15] -0.056 | [16] -0.003 | [17] 0.198 | [18] -0.001 | [19] -0.159

3 consecutive entries already listed, for reference:
DAB2 (UniProt P98082)
inactive: [1] 0.107 | [2] 0.112 | [3] 0.01 | [4] -0.035 | [5] 0.037 | [6] 0.008 | [7] 0.002 | [8] 0.019 | [9] -0.156 | [10] -0.006 | [11] -0.009 | [12] 0.004 | [13] -0.093 | [14] 0.082 | [15] -0.119 | [16] -0.02 | [17] 0.138 | [18] 0.049 | [19] -0.075

CYP2S1 isoform 2 (UniProt Q96SQ9)
inactive: [1] 0.008 | [2] -0.025 | [4] 0.032 | [5] 0.359 | [6] -0.056 | [7] 0.096 | [8] -0.09 | [11] -0.044 | [12] -0.302 | [13] -0.032 | [14] -0.132 | [16] 0 | [17] 0.044 | [18] -0.274

CUEDC2 (UniProt Q9H467)
inactive: [1] 0.016 | [2] -0.023 | [3] 0.047 | [4] 0.023 | [5] -0.021 | [6] 0.117 | [7] -0.074 | [8] 0.008 | [9] -0.071 | [10] -0.006 | [11] 0.035 | [12] -0.011 | [13] 0.003 | [14] -0.026 | [15] -0.056 | [16] -0.003 | [17] 0.198 | [18] -0.001 | [19] -0.159

Later entries:

CYBRD1 (UniProt Q53TN4)
inactive: [1] 0.086 | [2] 0.031 | [4] 0.069 | [5] -0.078 | [7] -0.076 | [8] -0.022 | [11] -0.111 | [13] -0.058 | [14] 0.104 | [16] -0.028 | [17] -0.233 | [18] 0.007

CYB5A (UniProt P00167)
inactive: [1] 0.03 | [2] 0.033 | [3] -0.019 | [4] 0.024 | [5] 0.071 | [6] 0.105 | [7] 0.149 | [8] 0.033 | [12] 0.029 | [13] -0.069 | [14] -0.073 | [15] -0.026 | [16] 0.015 | [17] 0.012 | [20] 0.013

DBN1 isoform 3 (UniProt Q16643)
inactive: [1] -0.095 | [2] -0.047 | [3] -0.028 | [4] 0.039 | [5] -0.074 | [6] 0.02 | [7] 0.021 | [8] -0.029 | [9] 0.089 | [10] 0.041 | [11] -0.06 | [12] 0.099 | [13] 0.061 | [14] 0.072 | [15] 0.151 | [16] 0.047 | [17] -0.02 | [18] -0.005 | [19] -0.091

CTNND1 (UniProt O60716)
inactive: [1] -0.029 | [2] -0.037 | [3] -0.332 | [4] -0.104 | [5] -0.04 | [6] -0.003 | [7] 0.006 | [8] -0.027 | [9] 0.004 | [10] -0.094 | [11] -0.211 | [12] 0.006 | [13] -0.231 | [14] 0.419 | [15] 0.106 | [16] 0.028 | [17] 0.071 | [18] 0.241 | [19] 0.03

DCAF4L2 (UniProt Q8NA75)
inactive: [1] 0.053 | [2] 0.017 | [4] -0.079 | [5] 0.01 | [6] 0.058 | [7] -0.075 | [8] -0.07 | [9] -0.075 | [10] 0.017 | [11] 0.131 | [12] -0.007 | [13] -0.015 | [14] -0.023 | [16] -0.031 | [17] 0.178 | [18] -0.012 | [20] -0.036 | [19] 0.073

CTSV (UniProt O60911)
inactive: [1] 0.043 | [2] -0.105 | [3] 0.023 | [4] -0.054 | [5] 0.035 | [6] -0.004 | [7] 0.024 | [8] 0.023 | [9] 0.04 | [10] 0.022 | [11] 0.032 | [12] -0.002 | [13] 0.09 | [14] -0.035 | [15] -0.005 | [17] 0.14 | [18] 0.011 | [19] 0.125
active: [16] -0.917

CTSA (UniProt P10619)
inactive: [1] -0.058 | [2] -0.065 | [3] 0.001 | [4] -0.004 | [5] -0.053 | [6] 0.018 | [7] 0.04 | [8] 0.003 | [9] 0.021 | [10] 0.051 | [11] -0.006 | [12] 0.017 | [13] 0.038 | [14] -0.027 | [15] 0.027 | [16] -0.204 | [17] -0.017 | [18] 0.014 | [19] -0.058

DAD1 (UniProt P61803)
inactive: [1] 0.02 | [2] 0.05 | [3] -0.357 | [4] 0.162 | [5] 0.016 | [6] 0.117 | [8] -0.059 | [9] 0.038 | [10] -0.008 | [11] 0.025 | [12] -0.113 | [13] -0.036 | [15] -0.161 | [16] -0.108 | [18] 0.038 | [20] -0.143 | [19] 0.005
